{"source": "patent US20230212638A1", "about": "(priority 2020, published 2023)", "system": "BCG (Mycobacterium bovis)", "format": "cell-based", "settings": "RFP sample: control sample + 0.2 μL RFP at 50 mg/mL; 20 elements; 12 hours; 37° C.; FIG. 10(c)", "note": "At least one structure is not confirmed: it was looked up by name or label, or the drawing left a doubt.", "data": [{"molecule": "CO[C@H]1/C=C/O[C@@]2(C)Oc3c(C)c(O)c4c(O)c(c(/C=N/N5CCN(C)CC5)c(O)c4c3C2=O)NC(=O)/C(C)=C\\C=C\\[C@H](C)[C@H](O)[C@@H](C)[C@@H](O)[C@@H](C)[C@H](OC(C)=O)[C@@H]1C", "note": "[RFP, rifampicin]", "values": [{"measurement": "growth of BCG reflected on the frequency shift of each element", "result": "growth of BCG was suppressed"}]}]}
